Test results: PMC10681800, “Structural and functional investigation of GajB protein in Gabija anti-phage defense” (Nucleic Acids Research, 2023)
These are yes or no findings as the source states them, for the method shown. Some binding calls cover weakened binding; strength is not graded here. Tags and fused reporters may be left off the sequences shown.

T1: GajA of Bacillus cereus VD045 co-expressed with GajB, made with an N-terminal (His)6-MBP tag that was removed before the final SEC (Bacillus cereus VD045) (UniProt J8H9C1)
T1 sequence: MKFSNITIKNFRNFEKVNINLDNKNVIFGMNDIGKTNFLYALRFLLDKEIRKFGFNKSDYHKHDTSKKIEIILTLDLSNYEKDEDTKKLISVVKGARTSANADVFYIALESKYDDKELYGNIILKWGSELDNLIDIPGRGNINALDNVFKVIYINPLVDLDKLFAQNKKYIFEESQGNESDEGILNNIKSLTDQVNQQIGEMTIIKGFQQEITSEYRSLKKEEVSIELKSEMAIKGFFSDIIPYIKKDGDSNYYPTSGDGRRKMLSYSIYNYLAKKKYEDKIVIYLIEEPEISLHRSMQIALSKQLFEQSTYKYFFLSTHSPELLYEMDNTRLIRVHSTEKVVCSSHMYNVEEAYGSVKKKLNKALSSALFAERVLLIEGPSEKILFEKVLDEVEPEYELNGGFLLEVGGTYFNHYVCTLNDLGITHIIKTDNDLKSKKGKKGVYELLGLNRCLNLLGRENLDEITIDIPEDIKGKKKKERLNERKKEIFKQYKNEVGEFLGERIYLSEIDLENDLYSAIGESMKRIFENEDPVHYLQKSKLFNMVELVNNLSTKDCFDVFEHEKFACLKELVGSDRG

B1: GajB of Bacillus cereus VD045, untagged, co-expressed with (His)6-MBP-GajA (protein, UniProt J8HQ06 1-494)
chain: MSREQIIKDGGNILVTAGAGSGKTTILVSKIEADLKENKTHYSIAAVTFTNKAAKEIEGRLGYSSRGNFIGTNDGFVESEIIRPFIKDAFGNDYPDNFTAEYFDNQFASYDKGLQVLKYQNILGTYSNPKKNFKFQLALDILKKSLVARQYIFSKYFKIFIDEYQDSDKDMHNLFMYLKDQLKIKLFIVGDPKQSIYIWRGAEPENFNGLIENSTDFNKYHLTSNFRCCQDIQNYSNLFNEETRSLIKEKNEVQNVISIADDMPISDILLKLTEEKQVLNIEAELVILVRRRNQAIEIMKELNEEGFNFIFIPQTPLDRATPNATLLKEVIKYVKNDRYSIYDLAAEIVGNLSSREIKEIQKIINELLVPNINQVLINQVLINLFAKLEITLDTREITAFTEVMMTNEFDIAFDTNEYLHKIFTVHSAKGLEFNQVIITASDYNVHYNRDTNEHYVATTRAKDKLIVIMDNKKYSDYIETLMKELKIKNIIKSI
B2: GajB of the Gabija anti-phage defense system of Bacillus cereus VD045, purified on its own, (His)6-MBP tag cleaved by TEV protease (natural protein)
chain: B1 chain
notes: GajB, Bacillus cereus VD045, synthetic gene in pET28a with (His)6-MBP and a TEV site; 57.1 kDa as printed; the subdomains of the crystal structure span residues 1-494; the shorter of the two GajB forms that the discussion tells of (the long form has five more N-terminal residues); Monomer by SEC-MALS and analytical SEC; also called individually purified GajB; separately purified GajB; source: E. …

Columns and labels:
[1] = biological target: T1, GajA of Bacillus cereus VD045 co-expressed with GajB, made with an N-terminal (His)6-MBP tag that was removed before the final SEC (Bacillus cereus VD045); experiment: co-purification + SEC; (His)6-MBP-GajA and untagged GajB co-expressed in E. coli; purified on HisTrap HP, tag cleaved by TEV, final SEC on Superdex 200 in 300 mM NaCl, 5% glycerol, 2 mM DTT, 20 mM HEPES pH 7.5
[2] = biological target: GajB of the Gabija anti-phage defense system of Bacillus cereus VD045, purified on its own, (His)6-MBP tag cleaved by TEV protease (Bacillus cereus VD045) (UniProt J8HQ06); experiment: SEC-MALS + SEC; each protein alone; Superdex 200 Increase 10/300 GL with miniDAWN/Optilab, 300 mM NaCl, 2 mM DTT, 5% glycerol, 20 mM HEPES pH 7.5, 20 μM, 25 °C; analytical SEC in the same buffer; both purified

Row | Binder | binding [1] | binding [2]
1 | B1 | binds | 
2 | B2 |  | no binding (tested: 20 μM)
